Binding data for three molecules are collected here from article PMC4432227.

No constants are given. Whether binding was seen depends on the method and setting. For part of these data: Binding seen in cells or lysates may run through a third protein. Some binding calls cover weakened binding; strength is not graded here. Tags and fused reporters may be left off the sequences shown.

Test [1] concerns the target Arl8b-Q75L with C-terminal HA epitope (UniProt Q9NVJ2). Put plainly: co-IP; transfected HEK293T cell lysates (20 mM Tris-HCl pH 7.4, 150 mM NaCl, 0.5% NP-40, 1 mM sodium orthovanadate), immunoprecipitated with anti-HA.
The target of test [2] is Arl8b-T34N with C-terminal HA epitope (UniProt Q9NVJ2). The test is described as above.
Test [3] deals with Arl8b with C-terminal HA epitope, wild type (UniProt Q9NVJ2). The description is as above.
The target of test [4] is Rab7 (yeast two-hybrid fusion), P51149. Put plainly: two-hybrid; S. cerevisiae AH109 co-transformants (pGBKT7 and pGADT7), grown at 30°C, replated on non-selection (+HIS) and selection (−HIS) plates. The following applies: remark: other sources report otherwise.
For test [5], the target named is T1, hVps41 (yeast two-hybrid fusion) (human), P49754.
T1 chain: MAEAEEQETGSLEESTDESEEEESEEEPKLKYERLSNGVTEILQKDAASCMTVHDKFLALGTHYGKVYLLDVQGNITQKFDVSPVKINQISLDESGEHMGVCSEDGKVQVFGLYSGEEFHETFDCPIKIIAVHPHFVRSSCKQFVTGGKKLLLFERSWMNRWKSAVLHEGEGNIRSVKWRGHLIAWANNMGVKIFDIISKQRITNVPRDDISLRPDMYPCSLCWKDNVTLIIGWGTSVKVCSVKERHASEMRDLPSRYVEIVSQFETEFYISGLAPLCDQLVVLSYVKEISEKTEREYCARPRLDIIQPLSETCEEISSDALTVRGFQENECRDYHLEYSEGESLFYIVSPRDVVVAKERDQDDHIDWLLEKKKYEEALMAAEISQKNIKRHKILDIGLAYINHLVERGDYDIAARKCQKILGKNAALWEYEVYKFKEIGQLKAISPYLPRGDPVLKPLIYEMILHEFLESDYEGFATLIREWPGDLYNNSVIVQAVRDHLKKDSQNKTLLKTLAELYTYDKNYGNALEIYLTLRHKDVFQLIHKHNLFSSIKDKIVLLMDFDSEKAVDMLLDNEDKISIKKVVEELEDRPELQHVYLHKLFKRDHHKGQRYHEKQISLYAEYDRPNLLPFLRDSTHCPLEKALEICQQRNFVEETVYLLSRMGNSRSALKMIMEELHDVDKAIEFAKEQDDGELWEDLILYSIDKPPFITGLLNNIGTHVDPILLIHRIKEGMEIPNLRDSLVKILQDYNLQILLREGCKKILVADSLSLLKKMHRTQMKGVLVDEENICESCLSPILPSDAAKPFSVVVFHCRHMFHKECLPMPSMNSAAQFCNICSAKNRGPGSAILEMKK
The test is described as above. The note with it: remark: other sources report otherwise.

Test [6] addresses T2, Arl8b (yeast two-hybrid fusion, Arl8b-pGBKT7), Q9NVJ2.
T2 chain: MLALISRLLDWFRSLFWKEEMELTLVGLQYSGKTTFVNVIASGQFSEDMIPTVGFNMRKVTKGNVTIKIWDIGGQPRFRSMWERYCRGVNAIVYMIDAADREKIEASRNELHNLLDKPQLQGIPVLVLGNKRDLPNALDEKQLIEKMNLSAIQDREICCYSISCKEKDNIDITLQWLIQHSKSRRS
The description is as above. The note with it: remark: other sources report otherwise.

B1: Myc–hVps41 (protein, UniProt P49754 1-854)
chain: T1 chain
On to B1, for which the binding result is “binds” in test [1], “no binding” in test [2] and “binds” in test [3].

B2: hVps41 (yeast two-hybrid fusion), P49754 1-854 (protein)
chain: T1 chain
As to B2, the binding result in test [4] is “no binding”.

B3: hVps16 (yeast two-hybrid fusion), Q9H269 1-839 (protein)
chain: MDCYTANWNPLGDSAFYRKYELYSMDWDLKEELRDCLVAAAPYGGPIALLRNPWRKEKAASVRPVLDIYSASGMPLASLLWKSGPVVSLGWSAEEELLCVQEDGAVLVYGLHGDFRRHFSMGNEVLQNRVLDARIFHTEFGSGVAILTGAHRFTLSANVGDLKLRRMPEVPGLQSAPSCWTVLCQDRVAHILLAVGPDLYLLDHAACSAVTPPGLAPGVSSFLQMAVSFTYRHLALFTDTGYIWMGTASLKEKLCEFNCNIRAPPKQMVWCSRPRSKERAVVVAWERRLMVVGDAPESIQFVLDEDSYLVPELDGVRIFSRSTHEFLHEVPAASEEIFKIASMAPGALLLEAQKEYEKESQKADEYLREIQELGQLTQAVQQCIEAAGHEHQPDMQKSLLRAASFGKCFLDRFPPDSFVHMCQDLRVLNAVRDYHIGIPLTYSQYKQLTIQVLLDRLVLRRLYPLAIQICEYLRLPEVQGVSRILAHWACYKVQQKDVSDEDVARAINQKLGDTPGVSYSDIAARAYGCGRTELAIKLLEYEPRSGEQVPLLLKMKRSKLALSKAIESGDTDLVFTVLLHLKNELNRGDFFMTLRNQPMALSLYRQFCKHQELETLKDLYNQDDNHQELGSFHIRASYAAEERIEGRVAALQTAADAFYKAKNEFAAKATEDQMRLLRLQRRLEDELGGQFLDLSLHDTVTTLILGGHNKRAEQLARDFRIPDKRLWWLKLTALADLEDWEELEKFSKSKKSPIGYLPFVEICMKQHNKYEAKKYASRVGPEQKVKALLLVGDVAQAADVAIEHRNEAELSLVLSHCTGATDGATADKIQRARAQAQKK
Turning to B3, the binding result in test [5] and in test [6] was “no binding” each time.
